Experimental findings from article PMC10362797, “Phosphorylation of USP20 on Ser334 by IRAK1 promotes IL-1β-evoked signaling in vascular smooth muscle cells and vascular inflammation” (The Journal of Biological Chemistry, 2023) are described below.

Protein sequences, listed by entry. Tags and fused reporters are not part of them.
UniProt Q8C6M1: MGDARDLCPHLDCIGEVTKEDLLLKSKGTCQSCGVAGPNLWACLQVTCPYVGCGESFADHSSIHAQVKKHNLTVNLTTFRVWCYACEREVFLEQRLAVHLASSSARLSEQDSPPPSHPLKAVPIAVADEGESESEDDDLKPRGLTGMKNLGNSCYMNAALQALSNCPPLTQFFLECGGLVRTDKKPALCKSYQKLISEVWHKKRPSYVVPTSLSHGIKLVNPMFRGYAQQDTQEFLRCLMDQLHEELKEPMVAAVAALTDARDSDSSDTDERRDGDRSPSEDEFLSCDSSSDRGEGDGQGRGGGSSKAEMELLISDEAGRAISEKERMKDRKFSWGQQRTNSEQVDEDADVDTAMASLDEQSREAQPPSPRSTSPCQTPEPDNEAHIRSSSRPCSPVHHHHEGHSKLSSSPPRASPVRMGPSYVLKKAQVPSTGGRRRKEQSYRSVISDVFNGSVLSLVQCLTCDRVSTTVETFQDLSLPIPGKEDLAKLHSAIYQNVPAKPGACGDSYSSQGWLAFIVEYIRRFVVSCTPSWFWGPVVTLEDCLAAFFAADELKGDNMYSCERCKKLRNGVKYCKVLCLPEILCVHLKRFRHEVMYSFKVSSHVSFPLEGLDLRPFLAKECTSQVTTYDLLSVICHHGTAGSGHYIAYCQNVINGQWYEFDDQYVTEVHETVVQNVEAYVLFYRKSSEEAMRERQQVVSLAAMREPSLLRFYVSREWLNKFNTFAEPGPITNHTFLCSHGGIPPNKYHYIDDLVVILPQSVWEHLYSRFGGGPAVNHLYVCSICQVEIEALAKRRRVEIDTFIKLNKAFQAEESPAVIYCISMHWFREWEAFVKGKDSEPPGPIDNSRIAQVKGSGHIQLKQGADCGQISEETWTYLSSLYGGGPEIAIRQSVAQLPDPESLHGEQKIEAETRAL

This test deals with T1, TRAF6 (TNFR-associated factor 6), endogenous (mouse (endogenous in mouse SMCs)) (UniProt P70196).
T1 sequence: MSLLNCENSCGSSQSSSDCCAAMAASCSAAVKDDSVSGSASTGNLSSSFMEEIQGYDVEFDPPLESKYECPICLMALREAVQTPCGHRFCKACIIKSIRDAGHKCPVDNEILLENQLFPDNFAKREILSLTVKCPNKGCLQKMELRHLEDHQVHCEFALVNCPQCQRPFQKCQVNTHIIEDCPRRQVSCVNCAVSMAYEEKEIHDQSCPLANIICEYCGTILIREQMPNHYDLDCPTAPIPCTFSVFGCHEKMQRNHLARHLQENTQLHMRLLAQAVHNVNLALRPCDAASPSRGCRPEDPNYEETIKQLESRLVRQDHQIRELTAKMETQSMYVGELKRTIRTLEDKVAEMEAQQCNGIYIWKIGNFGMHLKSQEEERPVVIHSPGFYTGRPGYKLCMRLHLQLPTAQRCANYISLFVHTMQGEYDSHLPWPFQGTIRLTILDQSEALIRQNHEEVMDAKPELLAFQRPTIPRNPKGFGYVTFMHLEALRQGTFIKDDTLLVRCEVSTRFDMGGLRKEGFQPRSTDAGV
Nature of the test: co-IP; endogenous TRAF6 immunoprecipitated with anti-TRAF6(D-10) agarose overnight at 4 °C from lysates of mouse SMCs transduced with HA-USP20, serum starved 1 h and stimulated with IL-1β (1 ng/ml, 20 min); lysis buffer 50 mM Hepes pH 7.5, 2 mM EDTA, 250 mM NaCl, 10% glycerol, 0.5% Nonidet P-40; immunoblot for HA. (Immunoblotting shows a protein as a band on a membrane.)

Results are given in words; binding and its absence hold for the method and conditions named. In cells and extracts the contact can be indirect. Some results given as binding are weak or reduced against the parent protein; the word gives no strength.

Turning to “HA-tagged USP20-WT (ubiquitin-specific peptidase 20, mouse) (from UniProt Q8C6M1 1-916) (enzyme)”, the binding result is reported as “binds”.
